Structures were worked out from names or drawings and are uncertain.
Molecular target: human GPR119 receptor (Homo sapiens, UniProt Q8TDV5, S329A/T327A)
Assay: cAMP assay (LANCE cAMP-384) in HEK293 cells stably expressing mutant human GPR119 receptor
Conditions: the 31st table
Experimental: Quantitative detection of cAMP accumulation from cells expressing human GPR119 receptor was achieved using Perkin Elmer's LANCE cAMP-384 Kit (Cat#AD0264) according to the manufacturer's protocol. Briefly, HEK293 cells stably expressing a mutant form of the human GPR119 receptor (Methionine 1 replaced with the amino acid sequence […] (SEQ ID NO: 1), and T327 & S329 changed to alanines) were grown to 50-70% confluency in cell culture media (DMEM, 10% heat inactivated Fetal Bovine Serum, 50 I.U./mL penicillin, 50 μg/mL streptomycin, 10 mM HEPES, 20 μg/mL G418 Sulfate). On the day of the assay, GPR119 stable HEK293 cells were lifted from the tissue culture plate and 1000 cells/well were incubated along with various concentrations of test compounds for 20 min at 37° C. Detection Buffer (50mM HEPES, 10mM calcium chloride, 0.35% Triton X-100, 1 mg/mL BSA) containing cAMP-specific antibody was then added to all wells and allowed to equilibrate in the dark for 10 minutes at room temperature. […] After 1 hour, bound europium-labeled cAMP tracer was measured using a Perkin Elmer ViewLux. The quantity of cAMP generated in each well was derived from a standard curve. […]
For some compounds for which no EC50 value could be determined, the efficacy is provided at a single concentration (10 μM) yielding % stimulation values.

By UniProt entry, the sequences of proteins in these tests, tags left out. Chains listed by the source or under a name are the forms on record and can include a tag or linker. Residues count along the entry.
UniProt Q8TDV5, 2-335 with tags or gaps S329A/T327A limits assumed: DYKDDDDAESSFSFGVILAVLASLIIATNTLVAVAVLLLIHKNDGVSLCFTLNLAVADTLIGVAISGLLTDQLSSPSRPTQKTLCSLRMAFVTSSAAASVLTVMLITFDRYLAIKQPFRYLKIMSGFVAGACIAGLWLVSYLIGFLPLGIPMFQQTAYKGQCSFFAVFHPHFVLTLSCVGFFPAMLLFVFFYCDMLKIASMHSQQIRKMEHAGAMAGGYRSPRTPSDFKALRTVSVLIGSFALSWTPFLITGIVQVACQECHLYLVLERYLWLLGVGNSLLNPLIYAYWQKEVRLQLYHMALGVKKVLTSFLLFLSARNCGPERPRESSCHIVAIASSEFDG

## CC(C)OC(=O)N1CCC(ON=C2CCN(c3ccc(S(C)(=O)=O)cc3F)C2)CC1
First isomer, tR 5.34 (E/Z or Z/E)
  EC50: 1150 nM
Second isomer, tR 5.45 (E/Z or Z/E)
  EC50: 542 nM

Source: patent publication US8293729B2 (Boehringer Ingelheim International GmbH, priority 2009, dated 2012)
